# The inconclusive results got no clear call from the source; some entries with a clear call stand among them for comparison. Potencies of inconclusive entries are doubtful fits and often do not repeat. Activity calls are given as the source filed them. The call rests on the fitted dose curve.
# Biological target: Beta-2 adrenergic receptor (Homo sapiens) (UniProt P07550)
# Experiment: Adrenergic beta2 receptor (ADRB2) small molecule agonists, cell-based qHTS assay (AID 1963593);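 on activation: CHO cells stably overexpressing human ADRB2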
# Details: CHO-ADRB2 cells, cAMP HTRF, 30 min; activation: at 92.4 µM (top of the series) unless noted
# Method in brief: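 CHO cells stably over-expressing ADRB2 were plated overnight at 37C, then dosed with compounds plus a stimulation mix containing 100uM IBMX and 25uM Ro-20-1724 for 0.5hr at room temperature. cAMP was measured by HTRF competition, 1hr.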
# On the % scale 0 is the no-effect control and ±100 the full control effect; potency means the concentration at half of the fitted maximal effect.
SMILES,Potency,activation
CCCCNCC,"inconclusive: 0.525 µM [inhibitor, partial curve, poor fit]",–
CCC(=O)c1cccc(Cl)c1,–,inconclusive: 15.7%
C1=CCC2CC=CC2C1 (stereo unspecified),–,inactive: 7.14%
Cc1ccc(CCn2c3c(c4cc(Cl)ccc42)CN(C)CC3)cn1,–,inconclusive: -64.3% [at 42.5 µM]
CC(O)c1ccccc1 (stereo unspecified),–,inconclusive: -26.8%
CCCCC/C=C\CCC=O,–,inconclusive: 1.37%
C=CC(=O)OCC1CCCO1 (stereo unspecified),–,inconclusive: 12%
COC(=O)c1cc(Cl)c(NC(C)=O)cc1OC,–,inactive: -8.52% [at 42.5 µM]
CCCC(=O)OC(C)(C)Cc1ccccc1,–,inactive: 29.7%
CCCCCCCCCCCCCCC(=O)NC(CO)CCCCCCCCCCCCCC (stereo unspecified),–,inactive: 0.464%
COc1cc(C(=S)N2CCOCC2)cc(OC)c1OC,–,inconclusive: 28% [at 42.5 µM]
OCC(CO)N[C@H]1C[C@](O)(CO)[C@@H](O)[C@H](O)[C@H]1O,–,inactive: 5.3% [at 42.5 µM]
CCCCCO,–,inconclusive: -7.72%
CCCCCCCCCCCCCCCCC,–,inactive: 2.87%
C=CC(=O)NC(C)C,–,inactive: 1.83%
C/C=C/CO,"inconclusive: 2.43 µM [inhibitor, full curve, poor fit]",–
C=CCCCCCCCCCCCCCC,"inconclusive: 9 µM [inhibitor, partial curve, poor fit]",–
C=CC(C)(CCC=C(C)C)OC(=O)c1ccccc1 (stereo unspecified),"inconclusive: 2.17 µM [inhibitor, single point]",–
CCc1ccc(C)nc1,–,inactive: 0.468%
c1ccc2cnncc2c1,–,inconclusive: 17.1%
O=C(O)c1ccccc1OP(=O)(O)O,–,inconclusive: 7.11% [at 42.5 µM]

# A section from further up, as a working copy:
SMILES,Potency,activation
C=CC(=O)NC(C)C,–,inactive: 1.83%
C/C=C/CO,"inconclusive: 2.43 µM [inhibitor, full curve, poor fit]",–

# — PubChem BioAssay (Tox21)
